The exact form of at least one protein or probe is not confirmed. Where cells or extracts were used, other partners may take part. For some of these results: No signal at the amounts used counts as a negative. For some of these results: At least one verdict rests on a figure or table, not on a statement of the authors. Tags and fusion partners may be left off the protein sequences shown. For some of these results: The comparison behind a weaker result is the experiment's own reference, which may not be listed here.
Key:
Foxa1 (zebrafish) [1] = molecular target: T1, Foxa1 (zebrafish) (UniProt Q6P0C9); assay: EMSA; settings: nuclear extract, Foxa1 identified by supershift on EM4 only; 10 nM probe, 10 ug nuclear extract, 500 ng poly dI-dC, 40 mM Tris-HCl pH 8.0, 0.4 mg/ml BSA, 200 uM ZnCl2, 400 mM KCl, 40% glycerol, 0.4% IGEPAL, 4 C, 1 h; 8% 1X TBE gel; protein in an extract; label: 5' Cy5
T1 sequence (looked up, limits assumed): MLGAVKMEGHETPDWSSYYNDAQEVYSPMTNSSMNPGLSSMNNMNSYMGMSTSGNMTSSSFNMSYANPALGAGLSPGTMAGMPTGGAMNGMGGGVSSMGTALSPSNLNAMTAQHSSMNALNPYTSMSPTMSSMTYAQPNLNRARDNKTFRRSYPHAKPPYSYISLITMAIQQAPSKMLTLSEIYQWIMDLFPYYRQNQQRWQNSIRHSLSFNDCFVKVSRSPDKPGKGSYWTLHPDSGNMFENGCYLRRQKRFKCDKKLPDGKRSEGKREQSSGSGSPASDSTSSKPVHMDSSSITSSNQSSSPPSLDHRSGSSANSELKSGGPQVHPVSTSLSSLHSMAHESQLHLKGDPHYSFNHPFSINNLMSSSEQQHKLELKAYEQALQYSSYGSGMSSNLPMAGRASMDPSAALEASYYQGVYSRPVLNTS

Foxa1 (zebrafish) [2] = molecular target: T1, Foxa1 (zebrafish); assay: EMSA supershift; settings: FOXA1 antibody, nuclear extract; 10 nM probe, 10 ug nuclear extract, 500 ng poly dI-dC, 40 mM Tris-HCl pH 8.0, 0.4 mg/ml BSA, 200 uM ZnCl2, 400 mM KCl, 40% glycerol, 0.4% IGEPAL, 4 C, 1 h; 8% 1X TBE gel; protein in an extract; label: 5' Cy5

Sequence	binding result (Foxa1 (zebrafish) [1])	binding result (Foxa1 (zebrafish) [2])
CTCGTTCTCTGCCTTTCTCTGGAGGGAGGGCTCTCCCTCT (double strand) [EM4 mutant M21-30]	no binding	
CTCGTTCTCTGCCTTTCTCTGGAGGTCTTTCTCTCCCTCT (double strand) [EM4 mutant Probe 5 (nt 21-25)]	no binding	
CTCGTTCTCTGCCTTTCTCTTTCTTGAGGGCTCTCCCTCT (double strand) [EM4 mutant Probe 6 (nt 26-30)]	binds more weakly	
CTCGTTCTCTGCCTTTCTCTTTCTTTCTTTCTCTCCCTCT (double strand) [EM4]		binds
